Measured values published in patent US20170320956A1.
Results are given in words; binding and its absence hold for the method and conditions named. Some entries that bind do so weakly or less than the wild type.

The chains behind the UniProt entries cited, without tags or fusion partners. Where a name states a change or a piece, a line headed by the entry shows the natural chain unless it says otherwise. A line that says so, or that is headed by a name, gives the form on record, which may keep a tag or linker.
recombinant cynomolgus monkey LIGHT, FLAG-tagged extracellular domain (cynomolgus (Macaca fascicularis)) (E9NVF7, form named): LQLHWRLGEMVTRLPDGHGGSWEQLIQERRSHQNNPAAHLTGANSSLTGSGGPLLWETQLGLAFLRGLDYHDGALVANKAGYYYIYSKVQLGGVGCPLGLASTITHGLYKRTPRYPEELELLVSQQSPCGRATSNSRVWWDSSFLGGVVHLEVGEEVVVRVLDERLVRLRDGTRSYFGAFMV

Assays:
[1] = target: recombinant cynomolgus monkey LIGHT, FLAG-tagged extracellular domain (cynomolgus (Macaca fascicularis)) (UniProt E9NVF7); assay: SPR
[2] = target: recombinant cynomolgus monkey LIGHT, FLAG-tagged extracellular domain (cynomolgus (Macaca fascicularis)) (UniProt E9NVF7); assay: SPR ProteOn, mAb captured on anti-human IgG, 37 C
[3] = target: recombinant cynomolgus monkey LIGHT, FLAG-tagged extracellular domain (cynomolgus (Macaca fascicularis)) (UniProt E9NVF7); assay: SPR ProteOn, mAb captured on anti-mouse IgG, LIGHT 256 nM, 25 C, apparent affinity
[4] = target: recombinant cynomolgus monkey LIGHT, FLAG-tagged extracellular domain (cynomolgus (Macaca fascicularis)) (UniProt E9NVF7); assay: SPR ProteOn, mAb captured on anti-human IgG, 25 C, apparent affinity

Row | binding [1] | binding [2] | binding [3] | binding [4] | Binder
1 | binds |  |  |  | 13H04 in human IgG4(PE) format (antibody, V domains shown) VH: QVQLVQSGAEVKKPGASVKVSCKASGYTFTSYGISWVRQAPGQGLEWMGWISAHNANTNYAQKLQGRVTMTTDTSTSTAYMELRSLRSDDTAMYYCARLYRNWFDPWGQGTLVTVSS VL: QSALTQPASVSGSPGQSITISCTGTSSDVGGYNYVSWYQQHPGKAPKLMIYDVSKRPSGVSNRFSGSKSGNTASLTISGLQAEDEADYYCCSYAGSSTLLFGGGTKLTVL
2 | binds | binds |  |  | 31A10 in human IgG4(PE) format (antibody, V domains shown) VH: QVQLQESGPGLVKPSGTLSLTCAVSGGSISSINWWNWVRQPPGKGLEWIGEVSHSGITNYNPSLKSRVTMSVDKAKNQFSLKLNSVTAADTAVYYCARERAVADYHGMDVWGQGTTVTVSS VL: AIQLTQSPSSLSASVGDRVTITCRASQGISSALAWFQQKPGKPPKLLIFDASDLESGVSSRFSGSGSGTDFTLTISSLQPGDFATYYCQQFNSYPITFGQGTRLEIK
3 |  |  | binds |  | 31A10 (purified from hybridoma supernatant) (antibody, V domains shown) VH: QVQLQESGPGLVKPSGTLSLTCAVSGGSISSINWWNWVRQPPGKGLEWIGEVSHSGITNYNPSLKSRVTMSVDKAKNQFSLKLNSVTAADTAVYYCARERAVADYHGMDVWGQGTTVTVSS VL: AIQLTQSPSSLSASVGDRVTITCRASQGISSALAWFQQKPGKPPKLLIFDASDLESGVSSRFSGSGSGTDFTLTISSLQPGDFATYYCQQFNSYPITFGQGTRLEIK
4 | binds |  |  |  | 98C07 in human IgG4(PE) format (antibody, V domains shown) VH: QVQLVESGGGLVKPGGSLRLSCAASGFTFSDYYMSWIRQAPGKGLEWVSYISRSSFIYYSESVKGRFTISRDNAKNSLYLQMNSLRAEDTAVYYCARWELSPFDYWGQGTLVTVSS VL: DIQMTQSPSSLSASVGDRVTITCRASQGISNYLAWFQQKPGKAPKSLIYAASSLQSGVPSKFSGSGSGTDFTLTISSLQPEDFATYFCQQYNTYPFTFGPGTKVDIK
5 | binds | binds |  | binds | 01C02 in human IgG4(PE) format (antibody, V domains shown) VH: QVQLVQSGAEVQKPGASVMVSCKASGYTFTYYGISWVRQAPGQGLEWMGWISANSGNTNYAQKFQGRVTMTTDTSTNTAYMELRSLRTDDTAVYYCAKGGVAVLEYWGQGTLVTVSS VL: DIQLTQSPSFLSASVGDRVTITCWASQGISSYLAWYQQKPGKAPNLLIYVASTLQSGVPSRFSGSGSGTEFTLTISSLQPEDFATYYCQQLKIYPLTFGGGTKVEIK
6 |  |  |  | binds | 01C06 in human IgG4(PE) format (antibody, V domains shown) VH: QVQLVESGGGLVKPGGSLRLSCAASGFTFSDYYMNWIRQAPGKGLEWIADISSRDNTIYYADSVKGRFTISRDNAKNSLYLQMNSLRAEDTAVYYCARERGFGDYFGMDVWGQGTTVTVSS VL: AIQLTQSPSSLSASVGDRVTIACRASQDISSALAWFRQTPGKTPKLLIYDASSLESGVPSRFLGSGSGTDFTLTISSLQPEDFAIYYCQQFNTYPLTFGGGTKVEIK
